Laboratory results: US9133220B2, “Boron-containing 5-arylidene-3,5-dihydro-4H-imidazol-4-ones” (Evrogen Joint Stock Company, priority 2012, dated 2015)

System: cell membranes of HeLa Kyoto and HEK293 cell lines
Assay: Staining of cell membranes and comparison of photostability with EGFP
Format: cell-based, human
Settings: 5 μM; cells expressing EGFP-XRCC
Description: Human cell cultures HeLa and HEK293 were grown in standart conditions and analyzed by wide field fluorescent and confocal laser scanning microscopy (excitation at 488 nm, detection at 500-540 nm).
The cell staining of the cells, temporarily expressing chimer protein EGFP-XRCC (nuclear localization), was carried out by p-diethylamino-BDI-BF2 in concentration 5 μM to compare fluorescent properties of the compound p-diethylamino-BDI-BF2 to the green fluorescent protein EGFP.

## CCN(CC)c1ccc(/C=C2\N=C(C)N(C)C2=O)c(B(F)F)c1 [p-diethylamino-BDI-BF2, (Z)-4-(4-(diethylamino)-2-(difluoroboryl)benzylidene)-1,2-dimethyl-1H-imidazole-5(4H)-one]
  decrease of fluorescence intensity during the half-life time of EGFP under outer radiation: 5-10%
